Results as given in PubChem BioAssay AID2685 (National Center for Advancing Translational Sciences (NCATS), 2010).
Out of some 320,000 compounds screened, about 2,100 (0.66%) were called active. The shares of active, inactive and inconclusive entries below differ from those in the screen. Calls follow the shape of the dose curve; as a rule, active = well fitted inhibition curve with a large enough effect in the signal ratio, with a control signal flat (not every such curve was filed as active); inconclusive = small, poorly fitted or top-dose-only effect, or effect the other way, or a change in a side signal; inactive = flat fitted curve, though single readings scatter; the % refers to the signal ratio. Potencies beside an inconclusive call are fits to weak or partial responses and may not hold up.

Test: qHTS Assay for Lipid Storage Modulators in Drosophila S3 Cells
Conditions: BODIPY lipid droplet fluorescence, 18-24 h, cells fed with added oleic acid; lipid storage change, negative = inhibition: at 46.1 µM (top of the series) unless noted
Outline: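 Drosophila S3 cells loaded with oleic acid (400 uM, as added) and compounds at several concentrations; lipid droplets imaged by 488-nm laser-scanning cytometry, 500–530 nm intensity and object ratio to cell channel. Percent activity normalized to 20 uM Triacsin C.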
% is scaled to controls: 0 for no effect and ±100 for the full control effect; potency is read from the fitted curve at half-maximal effect.

Row | Structure (SMILES) | lipid storage change, negative = inhibition | Potency | outcome
1 | NS(=O)(=O)c1ccc(NC(CNS(=O)(=O)c2ccccc2)c2ccccc2)cc1 (stereo unspecified) | inconclusive: 7.8% |  | 
2 | Cc1ccc([C@@H]2[C@@H]3C(=O)N(C)C(=O)[C@@H]3[C@]3(C)C(=O)N(CC4CC4)CC(=O)N23)o1 |  | inconclusive: 0.231 µM [activator, full curve] | 
3 | O=C1OCCN/C1=C\C(=O)c1ccc(Cl)cc1 | inactive: 4.76% |  | 
4 | CCC(=O)N1c2ccc(S(=O)(=O)N3CCCC3)cc2CC1C (stereo unspecified) | inconclusive: 280% |  | 
5 | Cc1ccc(S(=O)(=O)NN)c(C)c1N1CCCC1=O | inconclusive: 18.5% |  | 
6 | O=C(Cc1ccsc1)NNC(=O)c1cccc(Cl)c1 | inconclusive: 9.59% |  | 
7 | COc1cc(/C=C/C(=O)OCC(=O)Nc2ccc3c(c2)OCCO3)ccc1OCC#N | inconclusive: -3.61% |  | 
8 | CC1CC(=O)N(CC(=O)NCc2ccc(F)cc2)c2ccccc2S1(=O)=O (stereo unspecified) |  | inconclusive: 6.51 µM [falling, single point] | 
9 | O=C(COc1ccc2ccc(=O)oc2c1)N1CC[C@@]2(O)CCCC[C@H]2C1 |  | inconclusive: 29.1 µM [activator, single point] | 
10 | Cc1nc(C)n(CC(O)COc2ccc(C(=O)c3ccccc3)cc2)n1 (stereo unspecified) |  | inconclusive: 6.51 µM [rising, single point] | 
11 | COC(=O)c1ccc(/C=C/c2nc3ccccc3c(=O)[nH]2)cc1 | inconclusive: 78.1% |  | 
12 | COc1ccccc1CNC(=O)C1CSC2(C)CCC(=O)N12 (stereo unspecified) |  | inconclusive: 16.4 µM [activator, partial curve] | 
13 | CN1c2ccsc2C(O)=C(C(=S)Nc2ccccc2)S1(=O)=O |  | active: 18.4 µM | 
14 | Cc1ccc(N2C(=O)Nc3ccccc3S2(=O)=O)cc1Cl |  | inconclusive: 0.58 µM [activator, single point] | 
15 | COc1ccc(NC2=NCCC(=O)N2Cc2cccs2)cc1 | inconclusive: 13.1% |  | 
16 | CC(=O)c1ccc(NC(=O)C2CCCC2)cc1 | inconclusive: -3.72% |  | 
17 | COc1ccccc1N1CCN(C(=O)c2ccc(Cl)c(S(=O)(=O)N3CCOCC3)c2)CC1 |  | inconclusive: 20.6 µM [falling, single point] | 
18 | CCOC(=O)CSc1nnc(Cn2nnc(-c3ccccc3)n2)n1C |  | inconclusive: 3.26 µM [falling, full curve, poor fit] | 
19 | O=C(Nc1cc(-c2nc3ncccc3o2)ccc1Cl)c1cccs1 |  | inconclusive: 29.1 µM [cytotoxic, partial curve, poor fit] | 
20 | C1CCC(Nc2nc3nonc3nc2N2CCSCC2)C1 | inactive: 1.7% |  | 
21 | CCOC(=O)N1CCN(c2c(N3CCN(C(=O)OCC)CC3)c(=O)c2=O)CC1 | inconclusive: -17.8% |  | 
22 | O=[N+]([O-])c1cccc2c(S(=O)(=O)N3CCCCC3)cccc12 |  |  | inactive [at 46.1 µM]
23 | CCCCn1c(N)c(N(CCC(C)C)C(=O)CSc2nncn2-c2ccccc2)c(=O)[nH]c1=O |  | inconclusive: 29.1 µM [falling, single point] | 
24 | Cc1ccc(C)c(CSc2nc3[nH]ncc3c(=O)[nH]2)c1 | inconclusive: 5.7% |  | 
25 | O=C1C=C(c2ccccc2)C[C@H](c2cccs2)[C@H]1n1nnc([N+](=O)[O-])n1 | inconclusive: 21.9% |  | 
26 | C=C(C)Cn1c(CCn2c3ccccc3c3ccccc32)n[nH]c1=S | inconclusive: 40.1% |  | 

Structural class, the compounds so far with an NH in an aromatic ring
Row | Structure (SMILES) | lipid storage change, negative = inhibition | Potency | outcome
11 | COC(=O)c1ccc(/C=C/c2nc3ccccc3c(=O)[nH]2)cc1 | inconclusive: 78.1% |  | 
23 | CCCCn1c(N)c(N(CCC(C)C)C(=O)CSc2nncn2-c2ccccc2)c(=O)[nH]c1=O |  | inconclusive: 29.1 µM [falling, single point] | 
24 | Cc1ccc(C)c(CSc2nc3[nH]ncc3c(=O)[nH]2)c1 | inconclusive: 5.7% |  | 
26 | C=C(C)Cn1c(CCn2c3ccccc3c3ccccc32)n[nH]c1=S | inconclusive: 40.1% |  | 

Later entries.

Row | Structure (SMILES) | lipid storage change, negative = inhibition | Potency | outcome
27 | CNc1nc(N)c([N+](=O)[O-])c(NC2CCCCC2)n1 | inconclusive: -61.7% |  | 
28 | Cc1ccc2c(COC(=O)C3=COCCO3)cc(=O)oc2c1 |  | inconclusive: 0.461 µM [falling, full curve, poor fit] | 
29 | Cc1ccccc1OCc1nnc(SCC(=O)Nc2ccc(N3CCOCC3)c(Cl)c2)n1C |  | inconclusive: 1.3 µM [rising, full curve] | 
30 | Cc1cc2cc3c(cc2nc1SCC(=O)N1CCCC1)OCCO3 | inconclusive: 28.3% |  | 
31 | COc1ccc(CN(Cc2ccc(OC)cc2)S(=O)(=O)c2ccc(-n3cnnn3)c(C)c2)cc1 | inactive: -11.8% |  | 
32 | COc1ccc(Cc2nc3ccc(C(=O)NC(C)c4cn(C)nc4C)cc3o2)cc1 (stereo unspecified) |  |  | inactive [at 46.1 µM]
33 | CC(=O)N1CCN(C2=NC(=O)/C(=C/c3ccc(OS(=O)(=O)c4ccccc4)cc3)S2)CC1 |  | inconclusive: 0.58 µM [falling, full curve] | 
34 | COc1cccc(C(=O)Nc2c[nH]c(=O)[nH]c2=O)c1 | inconclusive: -31.1% |  | 
35 | CCOc1ccccc1N1CCN(C/C=C/c2ccc(N(C)C)cc2)CC1 |  | inconclusive: 0.103 µM [falling, full curve, poor fit] | 
36 | Cc1cc2occ(CC(=O)N(CCC(C)C)c3c(N)n(Cc4ccccc4)c(=O)[nH]c3=O)c2cc1C |  | inconclusive: 32.6 µM [falling, single point] | 
37 | COc1cc(C(=O)OCc2cc(=O)oc3c(C)c(C)ccc23)ccc1OC(F)F | inconclusive: -165% |  | 
38 | O=S(=O)(c1ccccc1)c1ccc(NCc2ccco2)cc1 | inconclusive: 7.3% |  | 
39 | Cc1cc(NC(=O)c2ccc(Cl)c([N+](=O)[O-])c2)no1 | inconclusive: -56.6% |  | 
40 | COc1ccc(Nc2nc(Nc3ccc(OC)cc3OC)nc(N3CCN(C)CC3)n2)c(OC)c1 | inconclusive: 3.27% |  | 
41 | COc1ccc(NC(=O)Cc2ccc(-c3ccccc3)cc2)cn1 | inconclusive: -6.55% |  | 
42 | Clc1cccc(NCc2nnc(SCc3ccccc3)o2)c1 | inactive: 9.23% |  | 
43 | CCOC(=O)C1CCCN(C(=O)c2cc(S(=O)(=O)N3CCCCC3)ccc2Cl)C1 (stereo unspecified) | inconclusive |  | 
44 | Cn1c(SCC(=O)NCc2ccccc2)ncc(C(=O)Nc2ccccc2)c1=O | inconclusive |  | 
45 | CCOc1ccc(NC(=O)CSc2ncnc3c2sc2ccccc23)cc1 | inconclusive: 7.1% |  | 
46 | CCc1nn(C(CC)C(=O)NCC(C)c2ccccc2)c(=O)c2cc3occc3n12 (stereo unspecified) | inconclusive: -8.7% |  | 
47 | COCCn1c(C)nnc1SCC(=O)NNC(=O)c1ccc(Cl)cc1 | inconclusive: 5.3% |  | 
48 | COc1cccc(-n2c(C)cc(/C=C3\C(=N)N4N=C(CC(=O)N5CCOCC5)SC4=NC3=O)c2C)c1 | inconclusive: 35.9% |  | 
49 | CCCNC(=O)CSc1nccn1Cc1ccc(OC)cc1 | inconclusive: 5.33% |  | 
50 | CCSc1nnc(NC(=O)c2nc(S(=O)(=O)Cc3ccc(F)cc3)ncc2Cl)s1 |  |  | inactive [at 46.1 µM]
51 | O=C(O)COc1ccccc1/C=N/NC(=O)C(O)c1ccccc1 (stereo unspecified) | inconclusive: 11.3% |  | 
52 | CC1Cc2ccccc2N1CC(=O)Nc1ccc(N2CCOCC2)cc1 (stereo unspecified) |  | inconclusive: 2.31 µM [activator, single point] | 

Row | Structure (SMILES) | lipid storage change, negative = inhibition | Potency | outcome
53 | COc1ccc(/C=C2\SC(=O)N(CCNC(=O)C3CSC4(C)CCC(=O)N34)C2=O)cc1 (stereo unspecified) |  | inconclusive: 1.64 µM [falling, partial curve, poor fit] | 
54 | Cc1cc(C(=O)Nc2ccccc2)c2ccccc2n1 | inconclusive: 3.12% |  | 
55 | O=C(CCC(=O)N1CCOCC1)c1ccc(F)cc1 |  | inconclusive: 3.26 µM [falling, partial curve, poor fit] | 
56 | O=C(O)CCSC(=S)N1CCOCC1 | inconclusive: 13% |  | 
57 | Cc1csc(C(=O)NCC(=O)NNC(=O)c2cccc(Cl)c2)c1 | inconclusive: -5.76% |  | 
58 | CSc1ccc(CN(C)CC(=O)NCc2ccc(F)cc2)cc1 |  | inconclusive: 25.9 µM [rising, single point] | 
59 | CCC(=O)N1c2ccccc2C(N(C(=O)CC)c2ccccc2)CC1C (stereo unspecified) |  | inconclusive: 4.11 µM [activator, single point] | 
60 | COCCNc1nc(Cl)c(C#N)s1 | inconclusive: -6.48% |  | 
61 | CCc1ccc(NC(=O)C(C)Sc2nc(-c3ccco3)c(C#N)c(=O)[nH]2)cc1 (stereo unspecified) |  | inconclusive: 20.6 µM [activator, single point] | 
62 | COc1ccc(CNC(=O)C2=CC(c3ccc(C)cc3)=NS(=O)(=O)N2C)cc1 | inconclusive: 1.83% |  | 
63 | CCCCC(=O)NC(c1ccc(Cl)cc1Cl)c1ccc2cccnc2c1O (stereo unspecified) |  | inconclusive: 16.4 µM [activator, partial curve] | 
64 | CN(CC(=O)Nc1cccc2ccccc12)c1ccc(S(=O)(=O)N2CCOCC2)cn1 | inconclusive: 20.7% |  | 
65 | Cc1c(/C(O)=C2\C(=O)C(=O)N(CCCN(C)C)C2c2ccncc2)cnn1-c1ccccc1 (stereo unspecified) | inconclusive: -16.5% |  | 
66 | O=C(CCC1CCCN(C(=O)c2ccccc2Cl)C1)N1CCN(c2ccccn2)CC1 (stereo unspecified) |  | inconclusive: 29.1 µM [falling, single point] | 
67 | CC(=O)Nc1ccc(NC(=O)CNC(=O)c2sc3ccccc3c2Cl)cc1 | inactive: -4.95% |  | 
68 | CCC1CCCCN1CCCNC(=O)c1cn(CC)c2ccc(S(=O)(=O)N(C)C3CCCCC3)cc2c1=O (stereo unspecified) | inconclusive: 54.8% |  | 
69 | Cc1ccc(NC(=O)Cn2c(=O)n(Cc3ccco3)c(=N)c3c4c(sc32)COC(C)(C)C4)cc1 |  | inconclusive: 9.2 µM [activator, partial curve] | 
70 | CN(C)C(=O)CSc1nnc(-c2ccc(S(=O)(=O)N3CCCC3)cc2)n1C | inconclusive: 79.5% |  | 
71 | CCCCCCCCCCC(=O)NNC(=O)c1c(O)c2ccccc2n(CC)c1=O | inconclusive: -25% |  | 
72 | CC(=O)C(C(C)=O)C1(O)C(=O)c2ccccc2C1=O | inconclusive: -13.5% |  | 
73 | Cc1onc(-c2ccccc2)c1C(=O)Nc1sc2c(c1C(N)=O)CCC2 | inconclusive: -27.4% |  | 
74 | CCOc1cc(/C=N/NC(=O)c2cc(C)[nH]n2)ccc1OC(=O)c1ccc([N+](=O)[O-])cc1 | inconclusive: 18.8% |  | 
75 | CCOC(=O)c1csc(NC(=O)CN2CCCCC2)n1 | inconclusive: -12.2% |  | 
76 | COCCNC(=O)CSc1nc(N)c(NC(=O)c2ccccc2F)c(=O)[nH]1 |  | inconclusive: 2.06 µM [activator, full curve, poor fit] | 
